Test results from paper doi:10.1101/2020.04.14.037788.
These are yes or no findings as the source states them, for the method shown. In cells and extracts the contact can be indirect.

By UniProt entry, the sequences of proteins in these tests, tags left out. Where a name states a change or a piece, a line headed by the entry shows the natural chain unless it says otherwise.
UniProt Q02248: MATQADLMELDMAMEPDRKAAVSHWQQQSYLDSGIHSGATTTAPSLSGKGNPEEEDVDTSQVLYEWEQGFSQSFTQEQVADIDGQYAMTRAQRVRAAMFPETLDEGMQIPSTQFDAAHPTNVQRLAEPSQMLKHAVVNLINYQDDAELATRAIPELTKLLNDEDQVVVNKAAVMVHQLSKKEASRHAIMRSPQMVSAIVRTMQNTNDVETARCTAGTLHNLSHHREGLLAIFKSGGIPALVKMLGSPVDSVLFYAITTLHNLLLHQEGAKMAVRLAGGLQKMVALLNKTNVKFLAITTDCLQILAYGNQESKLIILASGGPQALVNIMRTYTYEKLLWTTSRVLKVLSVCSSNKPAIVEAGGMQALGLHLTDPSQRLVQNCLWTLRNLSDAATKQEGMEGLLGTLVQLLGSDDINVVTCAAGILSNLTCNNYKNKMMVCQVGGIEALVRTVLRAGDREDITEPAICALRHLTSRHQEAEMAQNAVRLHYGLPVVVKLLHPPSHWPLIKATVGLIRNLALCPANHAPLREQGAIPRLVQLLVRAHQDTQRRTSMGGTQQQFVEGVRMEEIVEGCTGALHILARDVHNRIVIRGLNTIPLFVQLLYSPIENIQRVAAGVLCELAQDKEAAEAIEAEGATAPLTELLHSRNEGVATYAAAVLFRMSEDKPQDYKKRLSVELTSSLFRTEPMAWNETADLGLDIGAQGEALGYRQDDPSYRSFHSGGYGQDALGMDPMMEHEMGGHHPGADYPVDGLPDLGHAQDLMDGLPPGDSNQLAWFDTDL
UniProt Q06330: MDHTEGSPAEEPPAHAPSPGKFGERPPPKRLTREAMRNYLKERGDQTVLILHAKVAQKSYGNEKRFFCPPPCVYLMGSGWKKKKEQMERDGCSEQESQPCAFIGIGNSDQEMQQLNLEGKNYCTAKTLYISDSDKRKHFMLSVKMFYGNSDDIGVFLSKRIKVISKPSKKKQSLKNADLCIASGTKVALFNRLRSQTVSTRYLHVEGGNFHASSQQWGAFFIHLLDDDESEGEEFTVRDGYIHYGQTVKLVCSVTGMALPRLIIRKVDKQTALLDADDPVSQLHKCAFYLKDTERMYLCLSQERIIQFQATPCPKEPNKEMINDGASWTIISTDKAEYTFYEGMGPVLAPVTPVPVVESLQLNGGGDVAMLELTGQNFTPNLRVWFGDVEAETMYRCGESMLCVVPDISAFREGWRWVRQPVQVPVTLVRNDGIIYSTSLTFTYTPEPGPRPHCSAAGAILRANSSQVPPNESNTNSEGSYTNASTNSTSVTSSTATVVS

Biological target: S45Fβ-catenin (V5-tagged, mouse) (mouse) (UniProt Q02248)
Assay: co-IP

**Q.** RBPj (from UniProt Q06330 1-500) was tested. Which binding did it give?
**A.** no binding
